Assay: Zn (II) titration followed by 13C and 1H NMR
Assay type: binding
Settings: CD3CN

Bistratamide K [Bistratamide K (3)]
13C NMR changes on Zn (II) addition (ZnCl2, 2 and 4 equiv., 3 mg peptide in 0.75 mL): downfield carbon chemical shifts at positions C-5 (δC 168.5), C-10 (δC 170.7) and C-13 (δC 174.6) | 1H NMR changes on Zn (II) addition (ZnCl2, 4 equiv.): no changes were observed

Reference: article PMC5532651, “Bistratamides M and N, Oxazole-Thiazole Containing Cyclic Hexapeptides Isolated from Lissoclinum bistratum Interaction of Zinc (II) with Bistratamide K” (Marine Drugs, 2017)
